Data published in paper PMC11840727.
These are yes or no findings as the source states them, for the method shown. Binding seen in cells or lysates may run through a third protein. Some binding calls cover weakened binding; strength is not graded here.

Chains of the proteins cited; added tags and fusions are not shown. Lines headed by an entry give the natural chain unless they say otherwise; changes in a name come on top. Residues count along the entry.
UniProt P01106: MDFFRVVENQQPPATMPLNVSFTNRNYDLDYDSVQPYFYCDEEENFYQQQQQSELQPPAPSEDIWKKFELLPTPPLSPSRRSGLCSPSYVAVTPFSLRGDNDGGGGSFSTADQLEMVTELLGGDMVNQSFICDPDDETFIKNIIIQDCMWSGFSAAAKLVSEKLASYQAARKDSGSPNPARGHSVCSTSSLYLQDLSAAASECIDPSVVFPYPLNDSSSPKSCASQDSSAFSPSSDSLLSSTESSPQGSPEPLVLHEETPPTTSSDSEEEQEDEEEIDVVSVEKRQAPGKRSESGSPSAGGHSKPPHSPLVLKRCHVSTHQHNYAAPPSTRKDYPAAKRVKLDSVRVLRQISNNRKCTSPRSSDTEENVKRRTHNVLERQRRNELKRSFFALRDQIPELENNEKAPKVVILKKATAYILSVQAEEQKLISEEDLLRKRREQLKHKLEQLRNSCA
endogenous MYC (human (endogenous in UM-UC-3)): residues 16-454 of P01106
MYC N-terminal region (amino acids 1-221): residues 16-236 of P01106
MYC C-terminal region (amino acids 220-439): residues 235-454 of P01106
UniProt P51784: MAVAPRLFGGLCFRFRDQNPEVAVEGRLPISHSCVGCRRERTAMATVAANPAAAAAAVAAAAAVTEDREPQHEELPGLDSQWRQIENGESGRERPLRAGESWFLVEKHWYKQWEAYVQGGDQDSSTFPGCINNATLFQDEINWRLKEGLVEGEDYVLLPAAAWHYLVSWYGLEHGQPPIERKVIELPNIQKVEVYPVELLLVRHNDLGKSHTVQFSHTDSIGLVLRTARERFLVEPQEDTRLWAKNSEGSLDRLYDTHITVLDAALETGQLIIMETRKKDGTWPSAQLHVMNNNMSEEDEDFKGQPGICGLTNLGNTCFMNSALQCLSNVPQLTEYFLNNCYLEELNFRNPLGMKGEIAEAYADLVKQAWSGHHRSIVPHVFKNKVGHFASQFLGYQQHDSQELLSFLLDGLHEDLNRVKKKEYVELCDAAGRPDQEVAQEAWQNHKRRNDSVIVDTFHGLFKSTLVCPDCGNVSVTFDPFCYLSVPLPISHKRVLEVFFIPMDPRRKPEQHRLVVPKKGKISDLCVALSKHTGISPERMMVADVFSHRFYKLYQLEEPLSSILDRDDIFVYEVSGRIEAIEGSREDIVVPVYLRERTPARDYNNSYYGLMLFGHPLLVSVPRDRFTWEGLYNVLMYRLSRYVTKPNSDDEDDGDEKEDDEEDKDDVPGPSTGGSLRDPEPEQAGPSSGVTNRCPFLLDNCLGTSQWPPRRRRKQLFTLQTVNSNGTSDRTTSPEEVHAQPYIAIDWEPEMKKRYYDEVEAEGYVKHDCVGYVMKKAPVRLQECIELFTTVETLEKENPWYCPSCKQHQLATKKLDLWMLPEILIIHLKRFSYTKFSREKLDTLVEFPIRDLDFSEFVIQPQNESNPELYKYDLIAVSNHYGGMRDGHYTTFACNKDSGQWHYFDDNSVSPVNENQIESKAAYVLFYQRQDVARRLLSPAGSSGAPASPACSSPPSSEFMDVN

Assays:
[1] = biological target: MYC N-terminal region (amino acids 1-221) (UniProt P01106); experiment: co-IP; 293T cells transfected with the plasmids; lysates incubated with primary antibody overnight at 4°C, then Protein A/G magnetic beads 3 h at 4°C, four washes, Western blot; USP11-MYC also tested with DLGAP5 knockdown or overexpression
[2] = biological target: MYC C-terminal region (amino acids 220-439) (UniProt P01106); experiment: as above
[3] = biological target: MYC (exogenous; Flag-MYC or HA-MYC) (UniProt P01106); experiment: as above
[4] = biological target: GST-MYC protein (UniProt P01106); experiment: pull-down; lysate of transfected 293T cells incubated overnight with 2 µg GST or GST-MYC protein, then glutathione magnetic beads 2 h; Western blot; only the target purified
[5] = biological target: endogenous MYC (human (endogenous in UM-UC-3)) (UniProt P01106); experiment: co-IP; endogenous proteins in BLCA cells (UM-UC-3; UM-UC-3-P and GEM-resistant UM-UC-3-R); Protein A/G magnetic beads, Western blot

For “HA-USP11 (from UniProt P51784 1-963) (enzyme)”, the binding [1] was “binds”, the binding [2] was “binds” and the binding [3] was “binds”. For the same substance, the binding [4] was “binds”.
In the case of “endogenous USP11 (from UniProt P51784 1-963) (enzyme)”, the binding [5] is reported as “binds”.
